Data: article PMC9372748
Read-outs that look alike come from different tables or passages of the source. These are yes or no findings as the source states them, for the method shown. Binding seen in cells or lysates may run through a third protein. A yes stands for co-enrichment or nearness to the bait. Other partners may have been found.

Amino acid sequences for entries named in this document (tags omitted). A change or cut given only in a name is not applied to a line headed by its entry.
UniProt P35637: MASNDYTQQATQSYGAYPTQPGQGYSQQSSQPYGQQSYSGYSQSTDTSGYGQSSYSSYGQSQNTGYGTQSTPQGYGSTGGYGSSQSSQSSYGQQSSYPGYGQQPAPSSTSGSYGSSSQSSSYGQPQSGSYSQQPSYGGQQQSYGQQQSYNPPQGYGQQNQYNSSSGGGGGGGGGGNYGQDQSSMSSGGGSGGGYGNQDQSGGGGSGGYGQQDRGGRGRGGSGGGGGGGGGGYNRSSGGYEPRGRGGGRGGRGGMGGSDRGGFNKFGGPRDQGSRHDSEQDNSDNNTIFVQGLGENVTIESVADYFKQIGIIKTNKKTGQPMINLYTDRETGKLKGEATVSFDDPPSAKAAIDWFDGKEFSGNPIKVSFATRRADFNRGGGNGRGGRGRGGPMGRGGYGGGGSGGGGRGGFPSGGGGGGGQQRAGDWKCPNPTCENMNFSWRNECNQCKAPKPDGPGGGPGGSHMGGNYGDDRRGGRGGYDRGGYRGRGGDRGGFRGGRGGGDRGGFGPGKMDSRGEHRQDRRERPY
UniProt P55060: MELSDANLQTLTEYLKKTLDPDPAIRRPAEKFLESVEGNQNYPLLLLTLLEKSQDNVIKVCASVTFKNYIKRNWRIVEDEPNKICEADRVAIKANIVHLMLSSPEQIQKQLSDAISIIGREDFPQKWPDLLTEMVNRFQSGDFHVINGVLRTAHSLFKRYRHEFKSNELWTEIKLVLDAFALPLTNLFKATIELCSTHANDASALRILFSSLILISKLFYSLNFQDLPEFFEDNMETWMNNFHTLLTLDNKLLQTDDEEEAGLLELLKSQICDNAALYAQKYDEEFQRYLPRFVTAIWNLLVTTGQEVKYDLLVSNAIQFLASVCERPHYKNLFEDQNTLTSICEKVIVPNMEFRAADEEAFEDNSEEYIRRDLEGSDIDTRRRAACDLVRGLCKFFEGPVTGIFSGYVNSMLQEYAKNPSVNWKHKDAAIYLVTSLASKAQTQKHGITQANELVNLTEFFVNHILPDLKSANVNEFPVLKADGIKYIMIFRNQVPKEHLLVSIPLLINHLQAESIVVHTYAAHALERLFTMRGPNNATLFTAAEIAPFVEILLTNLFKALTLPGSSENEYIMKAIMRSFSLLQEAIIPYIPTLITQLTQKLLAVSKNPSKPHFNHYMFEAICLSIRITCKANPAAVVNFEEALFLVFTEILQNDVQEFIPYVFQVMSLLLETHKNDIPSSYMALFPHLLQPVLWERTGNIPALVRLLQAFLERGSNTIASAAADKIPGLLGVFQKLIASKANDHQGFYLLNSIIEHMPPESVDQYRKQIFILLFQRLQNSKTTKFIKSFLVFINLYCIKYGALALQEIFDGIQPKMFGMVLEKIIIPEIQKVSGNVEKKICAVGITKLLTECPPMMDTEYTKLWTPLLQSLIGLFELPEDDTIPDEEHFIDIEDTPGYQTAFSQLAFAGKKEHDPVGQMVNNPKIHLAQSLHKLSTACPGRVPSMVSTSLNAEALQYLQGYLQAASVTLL
UniProt Q14974: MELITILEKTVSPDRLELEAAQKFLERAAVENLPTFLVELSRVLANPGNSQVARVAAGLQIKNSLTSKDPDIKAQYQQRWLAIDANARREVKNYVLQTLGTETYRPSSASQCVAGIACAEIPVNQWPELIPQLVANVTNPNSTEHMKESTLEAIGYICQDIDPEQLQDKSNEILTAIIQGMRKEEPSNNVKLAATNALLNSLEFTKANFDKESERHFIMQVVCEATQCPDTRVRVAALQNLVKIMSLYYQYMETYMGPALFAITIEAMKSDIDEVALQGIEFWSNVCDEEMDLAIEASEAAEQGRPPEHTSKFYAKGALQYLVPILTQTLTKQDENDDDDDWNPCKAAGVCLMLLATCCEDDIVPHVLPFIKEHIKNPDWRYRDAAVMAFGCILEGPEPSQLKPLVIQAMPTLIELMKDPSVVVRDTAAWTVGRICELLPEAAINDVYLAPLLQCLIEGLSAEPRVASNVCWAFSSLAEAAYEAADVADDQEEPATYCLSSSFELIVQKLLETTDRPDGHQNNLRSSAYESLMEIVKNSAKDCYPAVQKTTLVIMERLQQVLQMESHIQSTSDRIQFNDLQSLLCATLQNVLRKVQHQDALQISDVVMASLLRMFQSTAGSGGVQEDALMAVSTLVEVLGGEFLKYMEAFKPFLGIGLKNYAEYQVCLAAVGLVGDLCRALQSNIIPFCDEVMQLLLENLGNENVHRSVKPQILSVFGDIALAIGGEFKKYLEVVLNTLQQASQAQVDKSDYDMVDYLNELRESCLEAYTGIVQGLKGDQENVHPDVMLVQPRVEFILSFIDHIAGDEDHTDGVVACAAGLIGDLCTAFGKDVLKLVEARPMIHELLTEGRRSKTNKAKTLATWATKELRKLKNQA
UniProt P05198: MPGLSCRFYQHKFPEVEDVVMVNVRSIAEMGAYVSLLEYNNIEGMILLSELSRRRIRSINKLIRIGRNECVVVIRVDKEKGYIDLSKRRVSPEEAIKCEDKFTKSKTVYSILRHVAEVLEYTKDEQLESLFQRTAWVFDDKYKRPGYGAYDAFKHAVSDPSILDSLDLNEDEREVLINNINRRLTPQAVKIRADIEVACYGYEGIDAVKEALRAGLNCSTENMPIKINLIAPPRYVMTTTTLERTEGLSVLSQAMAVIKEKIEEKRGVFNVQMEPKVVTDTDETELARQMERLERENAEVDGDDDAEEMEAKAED
UniProt O15397: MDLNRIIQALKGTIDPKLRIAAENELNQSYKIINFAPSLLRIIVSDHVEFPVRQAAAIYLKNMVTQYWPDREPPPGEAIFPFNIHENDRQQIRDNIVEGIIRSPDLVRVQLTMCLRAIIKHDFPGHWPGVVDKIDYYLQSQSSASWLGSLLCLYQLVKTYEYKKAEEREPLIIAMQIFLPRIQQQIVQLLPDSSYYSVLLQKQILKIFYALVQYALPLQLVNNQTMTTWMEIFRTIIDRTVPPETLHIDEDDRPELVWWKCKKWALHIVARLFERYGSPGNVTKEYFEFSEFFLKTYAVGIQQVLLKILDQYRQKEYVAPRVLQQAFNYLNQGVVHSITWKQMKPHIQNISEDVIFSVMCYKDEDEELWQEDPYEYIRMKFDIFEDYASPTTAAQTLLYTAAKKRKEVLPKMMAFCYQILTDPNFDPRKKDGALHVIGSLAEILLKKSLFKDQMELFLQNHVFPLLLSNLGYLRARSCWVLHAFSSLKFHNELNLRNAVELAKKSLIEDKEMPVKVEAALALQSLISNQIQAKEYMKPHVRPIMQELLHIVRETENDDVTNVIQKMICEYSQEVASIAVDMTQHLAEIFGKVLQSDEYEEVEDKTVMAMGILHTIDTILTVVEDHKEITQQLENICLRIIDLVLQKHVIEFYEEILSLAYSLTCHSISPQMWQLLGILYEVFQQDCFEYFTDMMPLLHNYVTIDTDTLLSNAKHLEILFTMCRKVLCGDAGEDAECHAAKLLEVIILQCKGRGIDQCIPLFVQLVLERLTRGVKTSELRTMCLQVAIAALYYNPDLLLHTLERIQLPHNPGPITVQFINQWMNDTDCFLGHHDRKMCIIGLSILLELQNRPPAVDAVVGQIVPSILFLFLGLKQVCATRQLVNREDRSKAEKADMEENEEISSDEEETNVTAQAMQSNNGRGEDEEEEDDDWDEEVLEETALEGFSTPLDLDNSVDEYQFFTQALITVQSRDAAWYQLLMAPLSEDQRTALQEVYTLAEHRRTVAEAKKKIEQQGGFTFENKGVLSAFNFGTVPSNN
UniProt Q9HAV4: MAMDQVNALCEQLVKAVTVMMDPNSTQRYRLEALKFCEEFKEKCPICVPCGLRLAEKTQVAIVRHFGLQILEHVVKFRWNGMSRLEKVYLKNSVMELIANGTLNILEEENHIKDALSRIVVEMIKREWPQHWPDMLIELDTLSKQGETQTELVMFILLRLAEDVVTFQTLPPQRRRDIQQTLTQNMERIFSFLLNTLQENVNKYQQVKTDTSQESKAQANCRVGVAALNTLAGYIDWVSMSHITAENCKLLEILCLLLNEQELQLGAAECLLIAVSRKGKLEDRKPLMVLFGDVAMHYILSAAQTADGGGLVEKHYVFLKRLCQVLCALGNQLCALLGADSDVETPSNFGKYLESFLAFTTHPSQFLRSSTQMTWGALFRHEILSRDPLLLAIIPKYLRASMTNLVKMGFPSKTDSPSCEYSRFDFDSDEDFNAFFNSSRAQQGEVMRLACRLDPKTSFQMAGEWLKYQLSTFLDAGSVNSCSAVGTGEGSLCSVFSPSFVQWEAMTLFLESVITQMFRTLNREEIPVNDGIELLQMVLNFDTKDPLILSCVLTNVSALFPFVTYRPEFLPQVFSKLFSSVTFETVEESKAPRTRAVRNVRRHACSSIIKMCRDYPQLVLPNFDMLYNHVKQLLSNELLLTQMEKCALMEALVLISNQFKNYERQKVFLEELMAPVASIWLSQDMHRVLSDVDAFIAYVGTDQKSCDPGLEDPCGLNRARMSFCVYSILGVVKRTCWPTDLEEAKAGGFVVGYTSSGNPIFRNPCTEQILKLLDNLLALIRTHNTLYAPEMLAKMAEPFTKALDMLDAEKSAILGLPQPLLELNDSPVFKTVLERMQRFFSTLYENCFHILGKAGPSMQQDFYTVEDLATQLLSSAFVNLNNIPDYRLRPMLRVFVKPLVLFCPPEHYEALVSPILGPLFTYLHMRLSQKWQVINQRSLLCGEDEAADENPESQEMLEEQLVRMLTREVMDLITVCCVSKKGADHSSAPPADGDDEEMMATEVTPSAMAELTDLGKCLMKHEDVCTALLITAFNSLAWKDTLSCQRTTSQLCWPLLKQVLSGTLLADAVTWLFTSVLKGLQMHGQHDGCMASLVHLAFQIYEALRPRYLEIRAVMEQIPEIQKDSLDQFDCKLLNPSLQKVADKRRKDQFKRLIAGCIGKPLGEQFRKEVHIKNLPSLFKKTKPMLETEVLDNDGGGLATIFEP

How the values were obtained:
Assay in all cases: proximity labelling; APEX2-FUS fusions transfected in HEK293T; 500 uM biotin-phenol 30 min, 1 mM H2O2 1 min; biotinylated proteins enriched on streptavidin magnetic beads, on-bead digestion, label-free LC-MS/MS; SAINT probability >=0.95 against untransfected control cells
APEX2-FUS P525L (human) [1] = target: APEX2-FUS P525L (human) (UniProt P35637)
APEX2-FUS WT (human) [2] = target: APEX2-FUS WT (human) (UniProt P35637)
APEX2-FUS P525L (human) [3] = target: APEX2-FUS P525L (human) (UniProt P35637); remark: listed apart in the source
APEX2-FUS WT (human) [4] = target: APEX2-FUS WT (human) (UniProt P35637); remark: listed apart in the source

| binding (APEX2-FUS P525L (human) [1]) | binding (APEX2-FUS WT (human) [2]) | binding (APEX2-FUS P525L (human) [3]) | binding (APEX2-FUS WT (human) [4]) | Molecule |
| --- | --- | --- | --- | --- |
| binds | binds |  |  | chromosome segregation 1 like/exportin-2 (CSE1L/XPO2) (from UniProt P55060 1-971) |
| binds | binds |  |  | importin subunit beta-1 (IMB1; KPNB1) (from UniProt Q14974 1-876) |
| binds | binds |  |  | eIF2α (from UniProt P05198 1-315) |
| binds | binds |  |  | importin-8 (IPO8) (from UniProt O15397 1-1037) |
| binds | binds |  |  | karyopherin subunit alpha 6 (KPNA6) (from UniProt O60684 1-536) |
| binds | binds |  |  | exportin-5 (XPO5) (from UniProt Q9HAV4 1-1204) |
|  |  | binds | binds | UPF1 (protein, UniProt Q92900 1-1129) MSVEAYGPSSQTLTFLDTEEAELLGADTQGSEFEFTDFTLPSQTQTPPGGPGGPGGGGAGGPGGAGAGAAAGQLDAQVGPEGILQNGAVDDSVAKTSQLLAELNFEEDEEDTYYTKDLPIHACSYCGIHDPACVVYCNTSKKWFCNGRGNTSGSHIVNHLVRAKCKEVTLHKDGPLGETVLECYNCGCRNVFLLGFIPAKADSVVVLLCRQPCASQSSLKDINWDSSQWQPLIQDRCFLSWLVKIPSEQEQLRARQITAQQINKLEELWKENPSATLEDLEKPGVDEEPQHVLLRYEDAYQYQNIFGPLVKLEADYDKKLKESQTQDNITVRWDLGLNKKRIAYFTLPKTDSGNEDLVIIWLRDMRLMQGDEICLRYKGDLAPLWKGIGHVIKVPDNYGDEIAIELRSSVGAPVEVTHNFQVDFVWKSTSFDRMQSALKTFAVDETSVSGYIYHKLLGHEVEDVIIKCQLPKRFTAQGLPDLNHSQVYAVKTVLQRPLSLIQGPPGTGKTVTSATIVYHLARQGNGPVLVCAPSNIAVDQLTEKIHQTGLKVVRLCAKSREAIDSPVSFLALHNQIRNMDSMPELQKLQQLKDETGELSSADEKRYRALKRTAERELLMNADVICCTCVGAGDPRLAKMQFRSILIDESTQATEPECMVPVVLGAKQLILVGDHCQLGPVVMCKKAAKAGLSQSLFERLVVLGIRPIRLQVQYRMHPALSAFPSNIFYEGSLQNGVTAADRVKKGFDFQWPQPDKPMFFYVTQGQEEIASSGTSYLNRTEAANVEKITTKLLKAGAKPDQIGIITPYEGQRSYLVQYMQFSGSLHTKLYQEVEIASVDAFQGREKDFIILSCVRANEHQGIGFLNDPRRLNVALTRARYGVIIVGNPKALSKQPLWNHLLNYYKEQKVLVEGPLNNLRESLMQFSKPRKLVNTINPGARFMTTAMYDAREAIIPGSVYDRSSQGRPSSMYFQTHDQIGMISAGPSHVAAMNIPIPFNLVMPPMPPPGYFGQANGPAAGRGTPKGKTGRGGRQKNRFGLPGPSQTNLPNSQASQDVASQPFSQGALTQGYISMSQPSQMSQPGLSQPELSQDSYLGDEFKSQIDVALSQDSTYQGERAYQHGGVTGLSQY |
|  |  | binds | binds | exportin-T (XPOT) (protein, UniProt O43592 1-962) MDEQALLGLNPNADSDFRQRALAYFEQLKISPDAWQVCAEALAQRTYSDDHVKFFCFQVLEHQVKYKYSELTTVQQQLIRETLISWLQAQMLNPQPEKTFIRNKAAQVFALLFVTEYLTKWPKFFFDILSVVDLNPRGVDLYLRILMAIDSELVDRDVVHTSEEARRNTLIKDTMREQCIPNLVESWYQILQNYQFTNSEVTCQCLEVVGAYVSWIDLSLIANDRFINMLLGHMSIEVLREEACDCLFEVVNKGMDPVDKMKLVESLCQVLQSAGFFSIDQEEDVDFLARFSKLVNGMGQSLIVSWSKLIKNGDIKNAQEALQAIETKVALMLQLLIHEDDDISSNIIGFCYDYLHILKQLTVLSDQQKANVEAIMLAVMKKLTYDEEYNFENEGEDEAMFVEYRKQLKLLLDRLAQVSPELLLASVRRVFSSTLQNWQTTRFMEVEVAIRLLYMLAEALPVSHGAHFSGDVSKASALQDMMRTLVTSGVSSYQHTSVTLEFFETVVRYEKFFTVEPQHIPCVLMAFLDHRGLRHSSAKVRSRTAYLFSRFVKSLNKQMNPFIEDILNRIQDLLELSPPENGHQSLLSSDDQLFIYETAGVLIVNSEYPAERKQALMRNLLTPLMEKFKILLEKLMLAQDEERQASLADCLNHAVGFASRTSKAFSNKQTVKQCGCSEVYLDCLQTFLPALSCPLQKDILRSGVRTFLHRMIICLEEEVLPFIPSASEHMLKDCEAKDLQEFIPLINQITAKFKIQVSPFLQQMFMPLLHAIFEVLLRPAEENDQSAALEKQMLRRSYFAFLQTVTGSGMSEVIANQGAENVERVLVTVIQGAVEYPDPIAQKTCFIILSKLVELWGGKDGPVGFADFVYKHIVPACFLAPLKQTFDLADAQTVLALSECAVTLKTIHLKRGPECVQYLQQEYLPSLQVAPEIIQEFCQALQQPDAKVFKNYLKVFFQRAKP |
|  |  | binds | binds | MOV10 (protein, UniProt Q9HCE1 1-1003) MPSKFSCRQLREAGQCFESFLVVRGLDMETDRERLRTIYNRDFKISFGTPAPGFSSMLYGMKIANLAYVTKTRVRFFRLDRWADVRFPEKRRMKLGSDISKHHKSLLAKIFYDRAEYLHGKHGVDVEVQGPHEARDGQLLIRLDLNRKEVLTLRLRNGGTQSVTLTHLFPLCRTPQFAFYNEDQELPCPLGPGECYELHVHCKTSFVGYFPATVLWELLGPGESGSEGAGTFYIARFLAAVAHSPLAAQLKPMTPFKRTRITGNPVVTNRIEEGERPDRAKGYDLELSMALGTYYPPPRLRQLLPMLLQGTSIFTAPKEIAEIKAQLETALKWRNYEVKLRLLLHLEELQMEHDIRHYDLESVPMTWDPVDQNPRLLTLEVPGVTESRPSVLRGDHLFALLSSETHQEDPITYKGFVHKVELDRVKLSFSMSLLSRFVDGLTFKVNFTFNRQPLRVQHRALELTGRWLLWPMLFPVAPRDVPLLPSDVKLKLYDRSLESNPEQLQAMRHIVTGTTRPAPYIIFGPPGTGKTVTLVEAIKQVVKHLPKAHILACAPSNSGADLLCQRLRVHLPSSIYRLLAPSRDIRMVPEDIKPCCNWDAKKGEYVFPAKKKLQEYRVLITTLITAGRLVSAQFPIDHFTHIFIDEAGHCMEPESLVAIAGLMEVKETGDPGGQLVLAGDPRQLGPVLRSPLTQKHGLGYSLLERLLTYNSLYKKGPDGYDPQFITKLLRNYRSHPTILDIPNQLYYEGELQACADVVDRERFCRWAGLPRQGFPIIFHGVMGKDEREGNSPSFFNPEEAATVTSYLKLLLAPSSKKGKARLSPRSVGVISPYRKQVEKIRYCITKLDRELRGLDDIKDLKVGSVEEFQGQERSVILISTVRSSQSFVQLDLDFNLGFLKNPKRFNVAVTRAKALLIIVGNPLLLGHDPDWKVFLEFCKENGGYTGCPFPAKLDLQQGQNLLQGLSKLSPSTSGPHSHDYLPQEREGEGGLSLQVEPEWRNEL |
